Measurements taken from patent US20260234201A1.
Results are given in words; binding and its absence hold for the method and conditions named. Some binding calls cover weakened binding; strength is not graded here.

Tests used:
[1] = target: biotinylated full-length human epidermal growth factor receptor 2 (HER2) (human) (UniProt P04626); experiment: SPR single trace, 500 nM analyte on chip coated with biotinylated HER2
[2] = target: biotinylated full-length human epidermal growth factor receptor 2 (HER2) (human) (UniProt P04626); experiment: SPR single trace, 500 nM analyte on biotinylated full-length human HER2

binding [1]	binding [2]	Binder
binds		GS-DARPin03-GSGSC-DTPA (designed binder, maleimide-DTPA coupled to the C-terminal Cys of the GSGSC tag) GSDLGIKLLFAAAKGQDDEVRELLKAGADVNAKDFQGVTPLHIAAQSGHLEIVEVLLKAGADVNAKDVTGDTPLHLAAQHGHLEIVEVLLKAGADVNAQDERGWTPADLAADWGHEDIAEVLQKAAGSGSC
binds		GS-DARPin02-GSGSC-DTPA (designed binder, maleimide-DTPA coupled to the C-terminal Cys of the GSGSC tag) GSDLGKKLLEAARAGQDDEVRELLKAGADVNAKDEYGLTPLYLATAHGHLEIVEVLLKAGADVNAVDAIGFTPLHLAAFIGHLEIAEVLLKAGADVNAQDKFGKTPADIAAGAGNEDIAEVLQKAAGSGSC

The remaining lines, values behind:

Binder	binding [1]	binding [2]
DARPin02 (non DTPA-coupled) (designed binder) DLGKKLLEAARAGQDDEVRELLKAGADVNAKDEYGLTPLYLATAHGHLEIVEVLLKAGADVNAVDAIGFTPLHLAAFIGHLEIAEVLLKAGADVNAQDKFGKTPADIAAGAGNEDIAEVLQKAA	binds	binds
DARPin03 (non DTPA-coupled) (designed binder) DLGIKLLFAAAKGQDDEVRELLKAGADVNAKDFQGVTPLHIAAQSGHLEIVEVLLKAGADVNAKDVTGDTPLHLAAQHGHLEIVEVLLKAGADVNAQDERGWTPADLAADWGHEDIAEVLQKAA	binds	binds
